Test results: PubChem BioAssay AID2685 (National Center for Advancing Translational Sciences (NCATS), 2010)
This is one part of the list. Further columns of the screen follow, without active or inactive calls. The list favours compounds with an active or inconclusive main result. The note in brackets gives the kind of curve behind each potency; many fits are weak.

Test: qHTS Assay for Lipid Storage Modulators in Drosophila S3 Cells;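 for cell number change: cells counted by Cell Tracker Red CMTPX staining in the red channel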
Conditions: BODIPY lipid droplet fluorescence, 18-24 h; for cell number change: measured here: cell count max response, cells fed with added oleic acid
Procedure, shortened: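 Drosophila S3 cells loaded with oleic acid (400 uM, as added) and compounds at several concentrations; lipid droplets imaged by 488-nm laser-scanning cytometry, 500–530 nm intensity and object ratio to cell channel. Percent activity normalized to 20 uM Triacsin C.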

[1] = measured here: cell number channel AC50, cells fed with added oleic acid
[2] = measured here: lipid fluorescence (Fed channel) AC50, cells fed with added oleic acid

## Cc1cc(C)c(C(=O)CSc2nnc(-c3cccnc3)n2C)c(C)c1
  cell number change: 63.9%
[1]
  AC50: 1.3 µM [rising, full curve]

## O=C1CC(=O)C(n2cncn2)C(c2ccc(Cl)cc2Cl)C1 (centres undefined)
  cell number change: -48%
[1]
  AC50: 14.6 µM [falling, partial curve]

## Cc1cccc(N2CC(C(=O)Nc3ccc(S(=O)(=O)N4CCOCC4)cc3)CC2=O)c1C (centres undefined)
  cell number change: 6.58%

## COc1ccc2nc(NC(=O)CS(=O)(=O)Cc3ccccc3)sc2c1
  cell number change: 2.32%
[1]
  AC50: 3.66 µM [rising, single point]

## Cc1sc(NC(=O)c2ccccc2)c(C(c2ccc(Cl)cc2)N2CCN(CCO)CC2)c1C (centres undefined)
  cell number change: -14.4%
[2]
  AC50: 6.51 µM [falling, single point]

## Cc1cc(C)cc(NCc2cc(=O)oc3cc(-c4ccccc4)c(O)cc23)c1
  cell number change: -51.4%
[1]
  AC50: 16.4 µM [falling, partial curve]
[2]
  AC50: 18.4 µM [falling, partial curve]

## Cc1c([N+](=O)[O-])cc(C(=O)NCc2ccc(F)cc2)cc1[N+](=O)[O-]
  cell number change: 66.5%
[2]
  AC50: 29.1 µM [rising, single point]

## Nc1nonc1-n1nnc(C(=O)N/N=C/c2ccncc2)c1CSc1ccccc1
  cell number change: 11.6%
[2]
  AC50: 29.1 µM [falling, single point]

## CC(=O)N1CN(Cc2ccccn2)Cc2c1sc1c2CCCC1
  cell number change: 20.2%
[2]
  AC50: 0.0164 µM [falling, full curve, poor fit]

## C=CCC(=O)OCC(=O)Nc1ccc(Cl)cn1
  cell number change: 0.119%
[2]
  AC50: 0.517 µM [rising, single point]

## CC(NC(=O)COC(=O)c1cc(Cl)nc(Cl)c1)c1ccccc1 (centres undefined)
  cell number change: 5.99%
[2]
  AC50: 0.316 µM [falling, full curve]

## COc1ccc(C(=O)N/C(=C/c2ccco2)C(=O)N2CCCCCC2)cc1
  cell number change: -11%
[2]
  AC50: 6.51 µM [falling, single point]

## CCN(CCCCCN(C)C)Cc1cc2ccccc2o1
[2]
  AC50: 16.4 µM [rising, single point]

## Cc1nn(Cc2noc(C(=O)NCc3ccccn3)n2)c(C)c1Br
  cell number change: -1.47%
[2]
  AC50: 0.00411 µM [falling, full curve, poor fit]

## Cc1ccc(C2=NN(CCC#N)C(=O)CO2)cc1
  cell number change: 9.26%
[2]
  AC50: 0.092 µM [falling, full curve, poor fit]

## CCN(C(=O)CCc1nnc2ccc(NCc3ccco3)nn12)c1ccccc1
  cell number change: -17.3%
[2]
  AC50: 0.58 µM [falling, single point]

## CC(C)c1nc(CN2CCCCC2)cc(=O)[nH]1
  cell number change: 67.7%
[1]
  AC50: 6.51 µM [falling, single point]
[2]
  AC50: 6.51 µM [falling, single point]

## Cc1ccc(S(=O)(=O)NC(=NCc2ccccc2)c2ccc(F)cc2)cc1
  cell number change: 23.4%
[2]
  AC50: 2.06 µM [rising, full curve, poor fit]

## O=C(COC(=O)CNS(=O)(=O)/C=C/c1ccccc1)Nc1cccc2ccccc12
  cell number change: 21%

## CCCc1ccc2oc(C(=O)NCCCN3CCOCC3)c(C)c2c1
  cell number change: 50.4%
[1]
  AC50: 29.1 µM [rising, single point]
[2]
  AC50: 29.1 µM [rising, single point]

## Fc1ccc(C(c2nnnn2C2CCCC2)N2CCc3ccccc32)cc1 (centres undefined)
  cell number change: -21.3%
[2]
  AC50: 9.2 µM [falling, partial curve]

## C=C(C)COc1ccc(-c2nc(N)ncc2Oc2ccccc2OC)c(O)c1
  cell number change: -23.5%

## COC(=O)c1[nH]c2ccc(C)cc2c1NC(=O)CCN1CCN(Cc2ccc3c(c2)OCO3)CC1
  cell number change: -24.6%
[2]
  AC50: 25.9 µM [falling, partial curve, poor fit]

## Cc1c(Nc2cc(=O)oc3ccccc23)c(=O)n(-c2ccccc2)n1C
  cell number change: -30.8%
[1]
  AC50: 5.8 µM [falling, full curve, poor fit]

## CC(=O)Nc1ccc(S(=O)(=O)NC(CC(=O)NCCCN2CCOCC2)C(C)C)cc1 (centres undefined)
  cell number change: 7.76%

## CCn1cc(C(=O)NCc2ccncc2)c(=O)c2cc(F)c(N3CCN(C(=O)c4ccco4)CC3)cc21
  cell number change: -20.8%
[2]
  AC50: 1.3 µM [falling, full curve]

## Cc1cc(C)c(NC(=O)C2CCCO2)c(C)c1NC(=O)C1CCCO1 (centres undefined)
  cell number change: 7.14%
[2]
  AC50: 29.1 µM [falling, single point]

## Cc1cc(-c2csc3ncnc(N4CCN(C)CC4)c23)cc(C)c1C
  cell number change: 4.58%
[2]
  AC50: 20.6 µM [rising, single point]

## Cc1ccc(NC(=O)C2CCCN(C(=O)c3ccc(Cl)cc3)C2)cc1C (centres undefined)
  cell number change: 44.7%
[1]
  AC50: 16.4 µM [rising, single point]

## CC(=O)NC(CCS(C)(=O)=O)C(=O)Nc1ccccc1C (centres undefined)
  cell number change: -56.5%
[1]
  AC50: 23.1 µM [falling, partial curve, poor fit]
[2]
  AC50: 29.1 µM [rising, single point]

## O=C(N/N=C/c1ccco1)c1cc([N+](=O)[O-])cc([N+](=O)[O-])c1
  cell number change: -46.2%
[1]
  AC50: 29.1 µM [falling, single point]
[2]
  AC50: 0.82 µM [rising, full curve, poor fit]

## CN(C)N=Nc1ccc(-c2cn(Cc3ccccc3)cn2)cc1
  cell number change: -8.03%
[2]
  AC50: 7.31 µM [rising, partial curve, poor fit]

## COc1ccc(NC2CCCN(C(=O)CCC3=NNC(=O)CC3)C2)cc1 (centres undefined)
  cell number change: -39.6%
[1]
  AC50: 29.1 µM [falling, single point]
[2]
  AC50: 1.84 µM [falling, partial curve]

## Nc1nc(-c2ccc(Cl)cc2)c(S(=O)(=O)c2ccccc2)s1
  cell number change: -40.3%
[1]
  AC50: 0.103 µM [falling, full curve, poor fit]

## CCOCCCn1c(=N)c(S(=O)(=O)c2ccc(C)cc2)cc2c(=O)n3cc(C)ccc3nc21
  cell number change: -13.3%
[1]
  AC50: 0.058 µM [falling, full curve, poor fit]

## CCOC(=O)/C(C#N)=C/c1ccc(OC)c(OC)c1
  cell number change: 1.06%
[2]
  AC50: 0.146 µM [falling, full curve, poor fit]

## O=C(CCNS(=O)(=O)c1cccs1)NCc1ccco1
  cell number change: 27.4%
[2]
  AC50: 4.11 µM [rising, partial curve, poor fit]

## O=C(O)c1nn(CC(=O)N2CCCCCC2)c(=O)c2ccccc12
  cell number change: 2.28%
[1]
  AC50: 0.651 µM [falling, partial curve, poor fit]
[2]
  AC50: 0.651 µM [falling, partial curve, poor fit]

## O=C(Cn1nc(-c2ccco2)ccc1=O)Nc1cc(C(F)(F)F)ccc1Cl
[2]
  AC50: 29.1 µM [rising, single point]

## Cc1nc2ccc(-c3nc4cc(N)ccc4o3)cc2[nH]1
[1]
  AC50: 0.651 µM [rising, full curve]

## COc1ccc(CCN2CC(C(=O)Nc3ccc(S(C)(=O)=O)cc3)CC2=O)cc1OC (centres undefined)
  cell number change: 1.54%
[2]
  AC50: 8.2 µM [rising, partial curve, poor fit]

## CC1CCCC(NC(=O)COC(=O)Cc2c[nH]c3ccccc23)C1C (centres undefined)
  cell number change: -14.7%
[2]
  AC50: 6.51 µM [falling, full curve, poor fit]

## Cc1ccc(C(=O)N2CC3(C(C)C)CN(C(=O)c4ccc(C)cc4)CC(C(C)C)(C2)C3=O)cc1
  cell number change: 24.6%
[2]
  AC50: 29.1 µM [rising, single point]

## CCCn1c(Nc2ccc(Cl)cc2)nc2ccccc21
  cell number change: 0.999%

## N#CC(C(=O)OC1CCCCC1)c1nc2ccccc2nc1N1CCOCC1 (centres undefined)
  cell number change: 22.5%
[1]
  AC50: 3.66 µM [rising, single point]
[2]
  AC50: 0.0731 µM [falling, full curve, poor fit]

## O=C(O)c1nccnc1C(=O)NCCc1c[nH]c2ccccc12
  cell number change: 80.9%
[1]
  AC50: 29.1 µM [rising, partial curve, poor fit]

## COc1ccc(OC)c(NC(=O)Cn2c(=O)oc3ccccc32)c1
  cell number change: 1.63%
[2]
  AC50: 0.00517 µM [rising, full curve, poor fit]

## COc1ccc(S(=O)(=O)N2c3ccccc3OCC2CC(=O)O)cc1 (centres undefined)
  cell number change: -27.1%
[2]
  AC50: 20.6 µM [falling, partial curve, poor fit]

## Cc1csc2nc(O)c(C(=O)NCCC3=CCCCC3)c(=O)n12
  cell number change: -11.8%

## Cc1nnsc1C(=O)NC1CCCc2c1cnn2-c1cc(F)cc(F)c1 (centres undefined)
  cell number change: -49%
[1]
  AC50: 20.6 µM [falling, single point]
[2]
  AC50: 13 µM [falling, partial curve, poor fit]

## Cc1ccc(C(=O)N/C(=C\c2sccc2C)C(=O)NCCCN2CCOCC2)cc1
  cell number change: -15.4%

## COc1ccccc1CNS(=O)(=O)c1ccc2c(c1)oc(=O)n2C
  cell number change: 0.921%

## Cc1cnc(C(=O)OCC(=O)NCCc2ccccc2)cn1
  cell number change: -40.2%
[1]
  AC50: 20.6 µM [falling, single point]
[2]
  AC50: 29.1 µM [falling, single point]

## OCc1c(Cl)nc2ccccn12
  cell number change: -152%
[1]
  AC50: 11.6 µM [falling, single point]
[2]
  AC50: 29.1 µM [falling, single point]

## COc1ccc(CN(C)C(=O)CCl)cc1
  cell number change: 16.2%
[1]
  AC50: 0.731 µM [falling, single point]
[2]
  AC50: 0.82 µM [falling, partial curve, poor fit]

## CC(C#N)Sc1ccc(S(=O)(=O)N2CCCC2)cn1 (centres undefined)
  cell number change: 6.77%
[1]
  AC50: 6.51 µM [falling, single point]
[2]
  AC50: 6.51 µM [falling, single point]

## CNC(=O)CCc1nc(-c2ccc(C(C)(C)C)cc2)no1
  cell number change: -17.7%

## O=Cc1ccc2c(c1)CCN2Cc1ccccc1
  cell number change: -7.8%

## COCCCn1c(SCC(=O)NC2CCS(=O)(=O)C2)nnc1-c1ccc(Cl)cc1 (centres undefined)
  cell number change: -7.51%

## CCOC(=O)CSc1nnc(-c2ccc(NS(=O)(=O)c3ccc(C)cc3)cc2)o1
  cell number change: -9.21%
[1]
  AC50: 0.326 µM [falling, partial curve, poor fit]
